Literature values, collected in US20230372518A1, “ANTIMITOTIC TETRAPEPTIDE-ANTIBODY CONJUGATES AND METHODS OF USING SAME” (Angiex, Inc., priority 2020, published 2023).
At least one structure is not confirmed: it was looked up by name or label, or the drawing left a doubt.

Conditions: Phase II FALCON study; reduced from 16.2 months; cited from earlier work

For COc1ccc(/C=C\c2cc(OC)c(OC)c(OC)c2)cc1OP(=O)(O)O [CA4P, Combretastatin], the Overall survival is listed as 13.6 months.
